Assay results from the supplement of paper PMC10849652.
The other results are listed elsewhere or left out.

Amino acid sequences for entries named in this document (tags omitted). A change or cut given only in a name is not applied to a line headed by its entry.
UniProt Q9Y3A3: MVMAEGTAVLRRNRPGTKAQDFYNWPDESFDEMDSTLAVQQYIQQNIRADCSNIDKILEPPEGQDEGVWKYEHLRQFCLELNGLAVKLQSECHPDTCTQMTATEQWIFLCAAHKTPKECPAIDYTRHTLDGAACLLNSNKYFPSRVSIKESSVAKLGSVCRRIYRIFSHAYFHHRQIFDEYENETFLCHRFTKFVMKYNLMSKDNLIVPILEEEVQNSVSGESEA
UniProt Q9HC36: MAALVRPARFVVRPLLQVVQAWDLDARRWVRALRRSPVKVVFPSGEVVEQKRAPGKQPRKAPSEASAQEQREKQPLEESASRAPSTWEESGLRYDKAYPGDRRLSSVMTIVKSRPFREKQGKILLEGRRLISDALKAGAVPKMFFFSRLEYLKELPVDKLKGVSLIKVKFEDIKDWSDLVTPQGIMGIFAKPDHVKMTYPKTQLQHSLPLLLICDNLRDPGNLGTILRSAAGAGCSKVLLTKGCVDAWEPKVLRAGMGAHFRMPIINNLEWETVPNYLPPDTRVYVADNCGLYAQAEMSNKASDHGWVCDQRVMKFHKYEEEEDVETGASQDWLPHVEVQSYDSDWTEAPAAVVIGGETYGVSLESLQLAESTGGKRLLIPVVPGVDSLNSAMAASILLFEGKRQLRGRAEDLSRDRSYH
UniProt Q9UBU8, whole entry, looked up: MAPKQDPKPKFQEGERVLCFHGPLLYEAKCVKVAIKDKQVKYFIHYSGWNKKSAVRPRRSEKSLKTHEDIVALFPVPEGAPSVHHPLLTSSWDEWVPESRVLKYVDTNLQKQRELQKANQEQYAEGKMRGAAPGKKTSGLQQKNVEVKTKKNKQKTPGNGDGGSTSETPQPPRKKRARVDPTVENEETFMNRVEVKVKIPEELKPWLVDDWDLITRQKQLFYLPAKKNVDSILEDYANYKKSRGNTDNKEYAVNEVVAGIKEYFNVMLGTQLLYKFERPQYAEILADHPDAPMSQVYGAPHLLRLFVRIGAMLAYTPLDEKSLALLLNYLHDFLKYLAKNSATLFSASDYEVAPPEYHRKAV
UniProt O95822: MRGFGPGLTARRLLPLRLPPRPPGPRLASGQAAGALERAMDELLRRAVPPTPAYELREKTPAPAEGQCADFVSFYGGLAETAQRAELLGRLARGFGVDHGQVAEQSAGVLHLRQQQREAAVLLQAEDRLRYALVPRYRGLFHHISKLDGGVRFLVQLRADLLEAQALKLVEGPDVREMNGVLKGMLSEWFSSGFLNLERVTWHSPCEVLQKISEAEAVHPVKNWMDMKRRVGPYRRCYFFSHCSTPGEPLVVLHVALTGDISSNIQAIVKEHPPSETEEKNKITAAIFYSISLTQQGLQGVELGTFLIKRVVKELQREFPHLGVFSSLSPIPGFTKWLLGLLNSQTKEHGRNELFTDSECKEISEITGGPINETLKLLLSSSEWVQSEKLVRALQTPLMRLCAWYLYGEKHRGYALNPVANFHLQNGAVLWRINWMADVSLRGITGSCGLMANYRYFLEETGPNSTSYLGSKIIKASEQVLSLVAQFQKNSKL
UniProt Q8NHP6: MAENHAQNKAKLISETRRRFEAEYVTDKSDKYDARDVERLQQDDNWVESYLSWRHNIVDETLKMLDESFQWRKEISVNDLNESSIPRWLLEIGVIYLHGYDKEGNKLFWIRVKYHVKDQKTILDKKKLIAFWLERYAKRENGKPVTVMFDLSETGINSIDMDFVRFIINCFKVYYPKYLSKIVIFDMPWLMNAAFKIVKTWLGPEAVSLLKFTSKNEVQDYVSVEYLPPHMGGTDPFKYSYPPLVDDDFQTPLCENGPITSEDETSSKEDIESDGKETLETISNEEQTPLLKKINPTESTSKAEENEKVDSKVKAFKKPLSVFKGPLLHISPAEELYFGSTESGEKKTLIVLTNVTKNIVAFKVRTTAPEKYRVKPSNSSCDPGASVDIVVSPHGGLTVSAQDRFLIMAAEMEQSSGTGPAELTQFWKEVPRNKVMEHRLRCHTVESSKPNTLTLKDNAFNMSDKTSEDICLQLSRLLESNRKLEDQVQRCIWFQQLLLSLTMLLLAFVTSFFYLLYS
UniProt Q99547: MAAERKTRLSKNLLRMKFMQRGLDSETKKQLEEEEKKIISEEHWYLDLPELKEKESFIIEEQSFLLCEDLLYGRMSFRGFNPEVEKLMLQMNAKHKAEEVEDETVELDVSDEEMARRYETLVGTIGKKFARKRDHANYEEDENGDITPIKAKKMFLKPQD
UniProt Q13724: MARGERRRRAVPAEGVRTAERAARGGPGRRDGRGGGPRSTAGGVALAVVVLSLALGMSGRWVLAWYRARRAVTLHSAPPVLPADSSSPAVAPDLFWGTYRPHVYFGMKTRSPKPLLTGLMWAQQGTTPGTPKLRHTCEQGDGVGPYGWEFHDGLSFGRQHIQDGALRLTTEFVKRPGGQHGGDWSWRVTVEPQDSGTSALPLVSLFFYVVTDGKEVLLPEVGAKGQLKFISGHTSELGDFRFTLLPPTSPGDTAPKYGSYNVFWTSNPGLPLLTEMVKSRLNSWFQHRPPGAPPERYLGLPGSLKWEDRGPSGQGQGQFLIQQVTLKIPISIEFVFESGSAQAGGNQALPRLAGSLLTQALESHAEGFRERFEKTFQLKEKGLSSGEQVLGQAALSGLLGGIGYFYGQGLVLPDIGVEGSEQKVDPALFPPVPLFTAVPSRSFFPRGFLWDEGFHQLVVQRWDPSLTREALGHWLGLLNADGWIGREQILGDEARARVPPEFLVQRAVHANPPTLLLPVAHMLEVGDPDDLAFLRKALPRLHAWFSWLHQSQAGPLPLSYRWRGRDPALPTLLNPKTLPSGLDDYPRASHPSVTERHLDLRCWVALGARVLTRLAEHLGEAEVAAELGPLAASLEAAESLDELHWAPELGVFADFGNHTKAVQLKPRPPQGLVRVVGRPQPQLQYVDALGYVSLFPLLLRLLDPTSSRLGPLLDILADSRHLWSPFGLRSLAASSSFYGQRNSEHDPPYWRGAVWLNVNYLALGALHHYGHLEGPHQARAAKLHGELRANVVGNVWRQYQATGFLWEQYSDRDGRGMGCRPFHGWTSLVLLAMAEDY
UniProt P25325: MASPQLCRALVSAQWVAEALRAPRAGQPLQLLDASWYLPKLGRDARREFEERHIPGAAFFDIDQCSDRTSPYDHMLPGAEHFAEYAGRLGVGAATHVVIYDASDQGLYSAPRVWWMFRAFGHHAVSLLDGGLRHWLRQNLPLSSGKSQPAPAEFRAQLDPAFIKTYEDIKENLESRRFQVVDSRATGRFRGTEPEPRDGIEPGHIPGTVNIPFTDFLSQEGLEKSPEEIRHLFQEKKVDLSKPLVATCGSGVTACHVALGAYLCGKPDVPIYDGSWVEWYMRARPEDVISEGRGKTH
UniProt Q99797: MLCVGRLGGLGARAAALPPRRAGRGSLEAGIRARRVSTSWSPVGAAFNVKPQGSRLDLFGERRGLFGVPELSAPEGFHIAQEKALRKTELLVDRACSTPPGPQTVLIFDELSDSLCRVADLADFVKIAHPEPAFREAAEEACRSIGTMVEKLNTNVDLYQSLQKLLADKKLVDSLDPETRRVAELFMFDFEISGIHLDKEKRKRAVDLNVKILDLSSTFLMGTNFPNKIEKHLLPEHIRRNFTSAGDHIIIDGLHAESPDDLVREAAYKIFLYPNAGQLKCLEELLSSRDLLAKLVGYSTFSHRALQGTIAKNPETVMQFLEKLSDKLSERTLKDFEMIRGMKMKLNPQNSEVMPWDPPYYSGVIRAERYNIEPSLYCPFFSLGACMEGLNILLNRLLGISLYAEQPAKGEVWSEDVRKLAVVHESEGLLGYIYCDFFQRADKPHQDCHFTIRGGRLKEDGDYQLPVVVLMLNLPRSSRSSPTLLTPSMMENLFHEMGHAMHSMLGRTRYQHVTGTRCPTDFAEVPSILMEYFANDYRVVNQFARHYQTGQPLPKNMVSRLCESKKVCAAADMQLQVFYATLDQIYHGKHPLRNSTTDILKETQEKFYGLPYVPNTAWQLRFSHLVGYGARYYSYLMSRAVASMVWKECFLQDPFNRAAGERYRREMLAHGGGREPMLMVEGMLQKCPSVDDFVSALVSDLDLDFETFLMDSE
UniProt Q9NYP9: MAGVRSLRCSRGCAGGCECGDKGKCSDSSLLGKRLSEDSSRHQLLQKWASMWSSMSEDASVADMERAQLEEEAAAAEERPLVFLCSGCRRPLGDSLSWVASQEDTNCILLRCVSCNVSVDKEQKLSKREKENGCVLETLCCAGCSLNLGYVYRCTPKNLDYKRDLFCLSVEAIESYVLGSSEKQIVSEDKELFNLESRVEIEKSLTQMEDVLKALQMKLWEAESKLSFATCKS
UniProt P29372, whole entry, looked up: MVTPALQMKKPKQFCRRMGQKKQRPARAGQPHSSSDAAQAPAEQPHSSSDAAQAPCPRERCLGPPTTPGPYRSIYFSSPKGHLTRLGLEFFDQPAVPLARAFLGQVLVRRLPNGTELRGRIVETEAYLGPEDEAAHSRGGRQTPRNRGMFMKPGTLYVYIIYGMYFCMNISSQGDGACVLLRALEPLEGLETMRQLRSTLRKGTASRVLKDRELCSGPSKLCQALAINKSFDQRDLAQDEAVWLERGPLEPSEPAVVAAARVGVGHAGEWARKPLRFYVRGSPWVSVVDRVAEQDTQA
UniProt A9UHW6: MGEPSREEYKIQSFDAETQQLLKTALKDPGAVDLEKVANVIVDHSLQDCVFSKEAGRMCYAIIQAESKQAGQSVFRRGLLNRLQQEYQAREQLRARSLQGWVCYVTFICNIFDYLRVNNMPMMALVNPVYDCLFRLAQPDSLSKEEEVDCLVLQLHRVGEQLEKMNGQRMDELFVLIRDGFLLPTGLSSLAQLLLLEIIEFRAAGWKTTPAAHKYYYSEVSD
UniProt Q6NTE8: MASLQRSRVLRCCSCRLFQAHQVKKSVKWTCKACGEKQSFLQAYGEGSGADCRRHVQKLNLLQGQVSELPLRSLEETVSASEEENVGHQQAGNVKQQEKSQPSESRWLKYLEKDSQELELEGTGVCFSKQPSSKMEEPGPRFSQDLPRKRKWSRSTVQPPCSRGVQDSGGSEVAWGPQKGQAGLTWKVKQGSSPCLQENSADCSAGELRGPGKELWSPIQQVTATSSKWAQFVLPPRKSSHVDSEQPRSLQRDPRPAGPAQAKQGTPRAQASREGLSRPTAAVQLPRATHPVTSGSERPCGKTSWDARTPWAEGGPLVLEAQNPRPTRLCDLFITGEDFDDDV
UniProt Q9UNW1: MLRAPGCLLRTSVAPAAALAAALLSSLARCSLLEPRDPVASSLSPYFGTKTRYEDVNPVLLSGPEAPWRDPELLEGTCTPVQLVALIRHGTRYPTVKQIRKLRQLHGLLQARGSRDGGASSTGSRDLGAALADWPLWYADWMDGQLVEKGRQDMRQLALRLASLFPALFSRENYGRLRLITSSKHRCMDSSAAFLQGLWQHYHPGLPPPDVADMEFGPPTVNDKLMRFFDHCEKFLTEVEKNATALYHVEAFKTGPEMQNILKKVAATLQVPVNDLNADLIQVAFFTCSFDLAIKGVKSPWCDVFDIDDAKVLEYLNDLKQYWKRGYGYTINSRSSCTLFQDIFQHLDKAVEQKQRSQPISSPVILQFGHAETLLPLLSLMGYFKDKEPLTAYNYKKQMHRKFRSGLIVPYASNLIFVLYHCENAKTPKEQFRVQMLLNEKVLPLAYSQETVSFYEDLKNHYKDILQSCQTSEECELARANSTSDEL
UniProt P22033: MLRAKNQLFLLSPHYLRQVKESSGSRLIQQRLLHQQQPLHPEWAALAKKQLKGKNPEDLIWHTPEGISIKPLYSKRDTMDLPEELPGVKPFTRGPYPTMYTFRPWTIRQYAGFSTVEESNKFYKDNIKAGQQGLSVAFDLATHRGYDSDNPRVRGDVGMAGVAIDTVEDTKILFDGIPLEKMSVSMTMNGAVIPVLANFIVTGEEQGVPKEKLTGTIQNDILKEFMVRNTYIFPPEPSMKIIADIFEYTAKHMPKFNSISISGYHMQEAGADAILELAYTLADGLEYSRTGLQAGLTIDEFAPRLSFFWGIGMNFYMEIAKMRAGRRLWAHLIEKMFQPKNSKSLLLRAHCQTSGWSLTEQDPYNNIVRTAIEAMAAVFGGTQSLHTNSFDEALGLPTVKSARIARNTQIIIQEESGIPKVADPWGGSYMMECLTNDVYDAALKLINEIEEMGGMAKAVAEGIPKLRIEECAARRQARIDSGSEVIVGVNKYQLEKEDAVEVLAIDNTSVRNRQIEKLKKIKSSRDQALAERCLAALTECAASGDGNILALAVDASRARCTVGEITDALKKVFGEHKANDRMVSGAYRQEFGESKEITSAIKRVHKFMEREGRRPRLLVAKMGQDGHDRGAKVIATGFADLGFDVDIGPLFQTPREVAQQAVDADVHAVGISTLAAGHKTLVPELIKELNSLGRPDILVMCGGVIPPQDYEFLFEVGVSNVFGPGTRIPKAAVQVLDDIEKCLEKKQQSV

Compound: c1cn2cc(-c3ccc4cn[nH]c4c3)nc(Nc3ccc(N4CCOCC4)cc3)c2n1 [entospletinib]
Test: log2 fold change, soluble protein after heating vs DMSO (PISA); higher = thermal stabilisation; K562 cells, 10 uM, 30 min; active = over 0.2 and 3.5 SD of the protein, either way, in both replicates (recomputed)
Outline: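 K562 cells at 2×10^6 cells/mL were treated for 30 min with 10 μM compound, and aliquots were heated for 3 min over 48°C-58°C before pooling. Extraction used PBS with 0.5% NP-40 at 4°C, and soluble protein was the supernatant after 21,000xg for 90 min, measured by TMTpro 16plex LC-MS/MS with channel sums equalised. Thermal stability values, relative to control samples and from duplicates, are log2 fold changes.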

log2 fold change, inactive:
MRPL23 (UniProt Q16540) 0.054
MRPL28 (UniProt Q13084) 0.058
MRPL43 isoform 4 (UniProt Q8N983) 0.049
MRPL20 (UniProt Q9BYC9) 0.052
MOB4 (UniProt Q9Y3A3) -0.049
MRM3 (UniProt Q9HC36) 0.105
MORF4L1 isoform 2 (UniProt Q9UBU8) 0.01
MRPL37 (UniProt Q9BZE1) 0.11
MLYCD (UniProt O95822) -0.027
MKKS (UniProt Q9HB66) 0.086
MOSPD2 (UniProt Q8NHP6) -0.007
MRPL33 (UniProt O75394) 0.09
MICB, A0A140T979 -0.01
MRPL32 (UniProt Q9BYC8) 0.09
MPHOSPH6 (UniProt Q99547) 0.019
MOGS (UniProt Q13724) -0.03
MRPL24 (UniProt Q96A35) 0.014
MPST isoform 2 (UniProt P25325) -0.023
MRPL42 (UniProt Q9Y6G3) -0.066
MRPL48 (UniProt Q96GC5) 0.062
MRPL10 isoform 2 (UniProt Q7Z7H8) 0.111
MIPEP (UniProt Q99797) -0.078
MIS18A (UniProt Q9NYP9) -0.007
MPG (UniProt P29372) -0.042
MRPL19 (UniProt P49406) 0.038
MIF4GD isoform 3 (UniProt A9UHW6) -0.011
MRPL45 (UniProt Q9BRJ2) 0.021
MRPL4 (UniProt Q9BYD3) 0.069
MRPL30 isoform 2 (UniProt Q8TCC3) 0.081
MRNIP (UniProt Q6NTE8) 0.193
MINPP1 (UniProt Q9UNW1) -0.022
MMUT (UniProt P22033) -0.01

A section taken from the entries so far, for reference:
log2 fold change, inactive:
MIPEP (UniProt Q99797) -0.078
MIS18A (UniProt Q9NYP9) -0.007
MPG (UniProt P29372) -0.042
MRPL19 (UniProt P49406) 0.038
MIF4GD isoform 3 (UniProt A9UHW6) -0.011
